Test results as given in publication PMC7819943, “Rice protein-binding microarrays: a tool to detect cis-acting elements near promoter regions in rice”.
This is one part of the list.

The sequences below were run against T1, OsSMF1 (Oryza sativa, UniProt Q6ZLB0 1-436) (assay: protein-binding microarray (RPBM); PBS, 2% BSA, 51.3 ng/ul salmon testes DNA, 50 uM zinc acetate, 200 nM TF, 25 C, 1 h; high values mean tight binding). Settings: protein: recombinant; tags: N-terminal polyhistidine and DsRed monomer fusion (pET32a); chain copies: 2; label: CyDye5-dUTP incorporated in the synthesized complementary strand; 3' TTTTT single-stranded linker to array surface; dsDNA, one strand shown.
T1 sequence: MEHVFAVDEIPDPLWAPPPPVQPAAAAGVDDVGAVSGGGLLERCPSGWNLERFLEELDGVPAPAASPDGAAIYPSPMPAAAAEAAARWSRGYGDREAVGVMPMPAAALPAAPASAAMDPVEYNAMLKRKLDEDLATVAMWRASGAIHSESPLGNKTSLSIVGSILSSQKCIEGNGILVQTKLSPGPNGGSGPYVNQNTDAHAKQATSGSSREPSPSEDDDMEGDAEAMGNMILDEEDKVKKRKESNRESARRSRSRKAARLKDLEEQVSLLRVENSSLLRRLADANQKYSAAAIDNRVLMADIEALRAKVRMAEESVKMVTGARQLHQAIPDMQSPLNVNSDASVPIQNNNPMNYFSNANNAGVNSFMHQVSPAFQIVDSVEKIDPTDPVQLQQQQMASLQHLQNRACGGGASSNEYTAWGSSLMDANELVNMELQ
In short: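 A custom Agilent array was converted to double-stranded form by primer extension with Cy5-dUTP and blocked with 2% BSA. Protein at 200 nM in PBS with 2% BSA, salmon testes DNA and 50 µM zinc acetate was applied for 1 h at 25 °C, followed by washing. The proteins were polyhistidine–DsRed N-terminal fusions of transcription factors, expressed in E. coli BL21-CodonPlus and Ni–NTA-purified. The binding signal is per-feature fluorescence intensity (arbitrary units) from an Axon 4000B scanner.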
“CTATCGAATGTGACGCATATAACAATCAACAGAACACCGTCGGAGTCACCTAGTGCAG” was tested, and the binding signal was 3250 fluorescence intensity (a.u.).
With “ACAGCACCGCTCACACGCGCCACGCATGCCGCTCCCATTCCGGAGTCACCTAGTGCAG” the binding signal was 8200 fluorescence intensity (a.u.).
“GAGAATTCTCCACGAAAAGAGGAGAACGAACCACATCAAACGGAGTCACCTAGTGCAG” was tested, and the binding signal was 3380 fluorescence intensity (a.u.).
In the case of “GCGCGGCGAGTCTGGTCGACTCATCGCCGATCGATTGACCCGGAGTCACCTAGTGCAG”, the binding signal is reported as 3760 fluorescence intensity (a.u.).
With “ACCTGGCAGCGGTGACTCCTCCTCGTCTACTCCCTCGCCGCGGAGTCACCTAGTGCAG” the binding signal was 3210 fluorescence intensity (a.u.).
“GCACGGCACGGCTACTCGTGCCGTGCCGGCACGGCCCGTTCGGAGTCACCTAGTGCAG” was tested, and the binding signal was 3670 fluorescence intensity (a.u.).
In the case of “TGCGCAGGGGTGGAGGGGATCGTGAGCAATGCGGACAATTCGGAGTCACCTAGTGCAG”, the binding signal is reported as 5070 fluorescence intensity (a.u.).
With “AGCGAGAAGGTAGAAACATCGACAGTAGCACTTGGCAGTGCGGAGTCACCTAGTGCAG” the binding signal was 3280 fluorescence intensity (a.u.).
For “TTCCTTATACGTGGAATGCCATACGTGGTTGTGATTTCTCCGGAGTCACCTAGTGCAG”, the binding signal was 5440 fluorescence intensity (a.u.).
“TTTGTTTTGTATTTGGTAACAGTGAGTCATTTAGAAATTGCGGAGTCACCTAGTGCAG” was tested, and the binding signal was 6190 fluorescence intensity (a.u.).
With “AGCACCACGGTCAATGCCACGTATGTGCCACGTCATCCAACGGAGTCACCTAGTGCAG” the binding signal was 46600 fluorescence intensity (a.u.).
For “TTCCCTCACGTCCAAACCAAACCAGCTCACAGAATCGCACCGGAGTCACCTAGTGCAG”, the binding signal was 18800 fluorescence intensity (a.u.).
In the case of “AAGACGAATGGTCTTATATGTCAATGACGTCATATATTAACGGAGTCACCTAGTGCAG”, the binding signal is reported as 9420 fluorescence intensity (a.u.).
In the case of “AAGAAGAGGGGATGAGGTCTCCAGCGCCTAGTCGCAGGGTCGGAGTCACCTAGTGCAG”, the binding signal is reported as 3310 fluorescence intensity (a.u.).
With “TCACACATTCTCCCATGCTGTACTAATTGTATTATGATAACGGAGTCACCTAGTGCAG” the binding signal was 3200 fluorescence intensity (a.u.).
With “TCAACCTCAAGCACATGGTTTGTTGCAAACTACTAAAATACGGAGTCACCTAGTGCAG” the binding signal was 34600 fluorescence intensity (a.u.).
With “CCTTCTTAACAGTCTGTGAAGCTCTGCCATCTCACCGTCTCGGAGTCACCTAGTGCAG” the binding signal was 3820 fluorescence intensity (a.u.).
For “CAAATGATGGTCTACACGTAAGCCTGAAAGATTGTCGGTGCGGAGTCACCTAGTGCAG”, the binding signal was 4520 fluorescence intensity (a.u.).
“AAACTCCAGAAGCTTTTCCACTTCCTAGTGACGTGGCAATCGGAGTCACCTAGTGCAG” was tested, and the binding signal was 26700 fluorescence intensity (a.u.).
In the case of “TATTTAATTACCTCACGCACATTCTTTTCTCAGCAAATCACGGAGTCACCTAGTGCAG”, the binding signal is reported as 3620 fluorescence intensity (a.u.).
For “CCTCGACAGATTCCATGAGCGCACTAATCCCAGTGCTCTGCGGAGTCACCTAGTGCAG”, the binding signal was 3180 fluorescence intensity (a.u.).
“ACGGCATGAAATCATGGTGCTGCTGCTCCTGCAGCGCGGCCGGAGTCACCTAGTGCAG” was tested, and the binding signal was 20300 fluorescence intensity (a.u.).
For “TACCCGCAGCCACCCGCCGCTGACGGTCAACCCACCTTCGCGGAGTCACCTAGTGCAG”, the binding signal was 3790 fluorescence intensity (a.u.).
“GTAAAGTTTTAACGTGTTACATCGGGTATTATATAGTGTGCGGAGTCACCTAGTGCAG” was tested, and the binding signal was 3660 fluorescence intensity (a.u.).
In the case of “TTCTTTCTGTGCATTCCAGGTCGGATTTCGGGCACTTCGCCGGAGTCACCTAGTGCAG”, the binding signal is reported as 3550 fluorescence intensity (a.u.).
For “GGGCAGGTGGGGAGGAGAGCGGGATGAGGTGGAAGGGGTCCGGAGTCACCTAGTGCAG”, the binding signal was 6070 fluorescence intensity (a.u.).
“AAGATGCTGACCTGCCAAGTAAACTATACAACAATTCCCTCGGAGTCACCTAGTGCAG” was tested, and the binding signal was 3270 fluorescence intensity (a.u.).
In the case of “CGCAGAGGCTGCTGATGTAATCACGTTCCATATGAAAAGGCGGAGTCACCTAGTGCAG”, the binding signal is reported as 4070 fluorescence intensity (a.u.).
For “CTTGTATCTAACTTGCAGTTACATTTAGTTCCAGTGCACTCGGAGTCACCTAGTGCAG”, the binding signal was 4620 fluorescence intensity (a.u.).
For “ATATTCAATATATAATTCATCTGCCGGATTAATTGCAATGCGGAGTCACCTAGTGCAG”, the binding signal was 3430 fluorescence intensity (a.u.).
With “TAATCACTCGATCTCTCCCAGATGCTTTATGCAAAGCCTACGGAGTCACCTAGTGCAG” the binding signal was 21600 fluorescence intensity (a.u.).
“AGCTAGCTAGCCACGCCATCCCTTTCTCCTCCTCCTTCTTCGGAGTCACCTAGTGCAG” was tested, and the binding signal was 5860 fluorescence intensity (a.u.).
“CCGGCGCCTTCTCGCGCGGCGGAATCAGGCCGCCGCGCTACGGAGTCACCTAGTGCAG” was tested, and the binding signal was 10100 fluorescence intensity (a.u.).
For “ATCGCAACAGAGTGGTTCGATTCCACCTCAGAACGACCTACGGAGTCACCTAGTGCAG”, the binding signal was 3660 fluorescence intensity (a.u.).
With “TATCTCTCTCCCGCTGACAACCCGGTCACACCGAACCAACCGGAGTCACCTAGTGCAG” the binding signal was 3850 fluorescence intensity (a.u.).
“TGAGGCCTCAATTGCAAGCTTCACTAACAAACACAGAAAACGGAGTCACCTAGTGCAG” was tested, and the binding signal was 28000 fluorescence intensity (a.u.).
“GATATAAACAGTGACGTATTAACGATTATTCCAACACTGCCGGAGTCACCTAGTGCAG” was tested, and the binding signal was 4120 fluorescence intensity (a.u.).
“GATCGGGACGTGTCGCGCAGCATGCAAGCCGCCGCACCCGCGGAGTCACCTAGTGCAG” was tested, and the binding signal was 3940 fluorescence intensity (a.u.).
“GGGCGCACCTACAGCACCAAGTGTAACCAGAGCTTACACACGGAGTCACCTAGTGCAG” was tested, and the binding signal was 3420 fluorescence intensity (a.u.).
With “CTACAGTATCTGGTGAATAGTAAATCAAAGCAGTAGTTTTCGGAGTCACCTAGTGCAG” the binding signal was 3230 fluorescence intensity (a.u.).
With “CTGACGACCCGGATCAACCATTGGCAGCAGCTCCTGTACACGGAGTCACCTAGTGCAG” the binding signal was 3580 fluorescence intensity (a.u.).
In the case of “TTCCCGATCCCTCCCTCGTCATCAAGCCAACTCCATCGTTCGGAGTCACCTAGTGCAG”, the binding signal is reported as 6040 fluorescence intensity (a.u.).
